For test [1], the target named is GFP-P3 (rabies virus CVS-11 phosphoprotein, truncated isoform P3, residues 53-297, fused to GFP) (rabies virus, strain CVS-11) (UniProt P22363). The test can be described thus: co-IP.
In test [2] the target is GFP-P1 (rabies virus CVS-11 phosphoprotein, full-length isoform P1, fused to GFP) (rabies virus, strain CVS-11) (UniProt P22363). Description: co-IP.

Protein sequences, listed by entry. Tags and fused reporters are not part of them. Lines headed by an entry give the natural chain unless they say otherwise; changes in a name come on top. Chains listed by the source or under a name are the forms on record and can include a tag or linker. Residues count along the entry.
UniProt P22363: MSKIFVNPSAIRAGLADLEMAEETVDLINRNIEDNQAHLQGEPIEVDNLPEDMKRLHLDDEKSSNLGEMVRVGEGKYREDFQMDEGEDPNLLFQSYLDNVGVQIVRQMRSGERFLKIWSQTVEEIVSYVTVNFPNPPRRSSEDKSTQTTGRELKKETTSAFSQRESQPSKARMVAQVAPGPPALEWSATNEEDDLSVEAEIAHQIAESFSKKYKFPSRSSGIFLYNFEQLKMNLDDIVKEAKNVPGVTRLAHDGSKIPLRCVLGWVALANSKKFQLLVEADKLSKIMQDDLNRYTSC
GFP-P3 (rabies virus CVS-11 phosphoprotein, truncated isoform P3, residues 53-297, fused to GFP): residues 53-297 of P22363
UniProt Q13283: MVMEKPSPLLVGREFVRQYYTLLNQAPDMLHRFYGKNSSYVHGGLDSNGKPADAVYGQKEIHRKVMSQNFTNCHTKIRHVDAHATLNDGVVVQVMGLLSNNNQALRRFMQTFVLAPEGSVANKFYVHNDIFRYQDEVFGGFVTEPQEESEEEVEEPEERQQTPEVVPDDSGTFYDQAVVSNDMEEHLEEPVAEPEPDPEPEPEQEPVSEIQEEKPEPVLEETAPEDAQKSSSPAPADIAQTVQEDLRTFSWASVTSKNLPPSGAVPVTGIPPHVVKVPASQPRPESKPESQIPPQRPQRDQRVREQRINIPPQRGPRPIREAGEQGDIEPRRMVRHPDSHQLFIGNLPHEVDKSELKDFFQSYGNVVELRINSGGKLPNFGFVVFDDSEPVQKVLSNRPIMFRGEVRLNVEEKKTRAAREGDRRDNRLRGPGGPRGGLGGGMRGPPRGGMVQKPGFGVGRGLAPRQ
UniProt P06748: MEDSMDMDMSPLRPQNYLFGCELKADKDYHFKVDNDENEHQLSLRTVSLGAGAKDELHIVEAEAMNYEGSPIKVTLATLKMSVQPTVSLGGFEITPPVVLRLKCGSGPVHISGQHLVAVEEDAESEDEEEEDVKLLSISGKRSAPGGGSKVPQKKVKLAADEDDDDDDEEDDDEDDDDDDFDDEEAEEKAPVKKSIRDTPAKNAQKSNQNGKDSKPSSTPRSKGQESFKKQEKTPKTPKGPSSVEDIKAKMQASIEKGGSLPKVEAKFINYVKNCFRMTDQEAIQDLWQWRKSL

No constants are given. Whether binding was seen depends on the method and setting. In cells and extracts the contact can be indirect. Some results given as binding are weak or reduced against the parent protein; the word gives no strength.

Turning to G3BP1 (from UniProt Q13283 1-466), the binding result in test [1] and in test [2] was “binds” each time.

For “nucleophosmin (NPM1) (from UniProt P06748 1-294)”, the binding entry in test [1] and in test [2] was “binds” each time.

For the origin of these results see publication PMC12589655.
